Data as given in article PMC2632887.
No constants are given. Whether binding was seen depends on the method and setting. In cells and extracts the contact can be indirect.

Chains of the proteins cited; added tags and fusions are not shown. Lines headed by an entry give the natural chain unless they say otherwise; changes in a name come on top.
UniProt Q04206: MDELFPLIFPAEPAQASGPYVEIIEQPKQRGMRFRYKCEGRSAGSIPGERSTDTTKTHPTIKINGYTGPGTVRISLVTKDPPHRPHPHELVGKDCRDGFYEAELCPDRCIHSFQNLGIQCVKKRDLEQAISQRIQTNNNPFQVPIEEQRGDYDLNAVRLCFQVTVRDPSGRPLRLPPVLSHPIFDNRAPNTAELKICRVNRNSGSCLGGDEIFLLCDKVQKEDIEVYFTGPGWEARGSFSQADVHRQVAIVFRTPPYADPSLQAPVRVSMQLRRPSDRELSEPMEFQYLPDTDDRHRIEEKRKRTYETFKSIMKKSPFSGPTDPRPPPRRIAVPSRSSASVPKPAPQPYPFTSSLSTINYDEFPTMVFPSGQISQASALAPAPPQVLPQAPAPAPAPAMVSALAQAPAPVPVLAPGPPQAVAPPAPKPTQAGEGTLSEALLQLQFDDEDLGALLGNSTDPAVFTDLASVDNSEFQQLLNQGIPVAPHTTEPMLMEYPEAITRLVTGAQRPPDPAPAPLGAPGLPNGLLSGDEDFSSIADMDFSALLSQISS
UniProt Q92793: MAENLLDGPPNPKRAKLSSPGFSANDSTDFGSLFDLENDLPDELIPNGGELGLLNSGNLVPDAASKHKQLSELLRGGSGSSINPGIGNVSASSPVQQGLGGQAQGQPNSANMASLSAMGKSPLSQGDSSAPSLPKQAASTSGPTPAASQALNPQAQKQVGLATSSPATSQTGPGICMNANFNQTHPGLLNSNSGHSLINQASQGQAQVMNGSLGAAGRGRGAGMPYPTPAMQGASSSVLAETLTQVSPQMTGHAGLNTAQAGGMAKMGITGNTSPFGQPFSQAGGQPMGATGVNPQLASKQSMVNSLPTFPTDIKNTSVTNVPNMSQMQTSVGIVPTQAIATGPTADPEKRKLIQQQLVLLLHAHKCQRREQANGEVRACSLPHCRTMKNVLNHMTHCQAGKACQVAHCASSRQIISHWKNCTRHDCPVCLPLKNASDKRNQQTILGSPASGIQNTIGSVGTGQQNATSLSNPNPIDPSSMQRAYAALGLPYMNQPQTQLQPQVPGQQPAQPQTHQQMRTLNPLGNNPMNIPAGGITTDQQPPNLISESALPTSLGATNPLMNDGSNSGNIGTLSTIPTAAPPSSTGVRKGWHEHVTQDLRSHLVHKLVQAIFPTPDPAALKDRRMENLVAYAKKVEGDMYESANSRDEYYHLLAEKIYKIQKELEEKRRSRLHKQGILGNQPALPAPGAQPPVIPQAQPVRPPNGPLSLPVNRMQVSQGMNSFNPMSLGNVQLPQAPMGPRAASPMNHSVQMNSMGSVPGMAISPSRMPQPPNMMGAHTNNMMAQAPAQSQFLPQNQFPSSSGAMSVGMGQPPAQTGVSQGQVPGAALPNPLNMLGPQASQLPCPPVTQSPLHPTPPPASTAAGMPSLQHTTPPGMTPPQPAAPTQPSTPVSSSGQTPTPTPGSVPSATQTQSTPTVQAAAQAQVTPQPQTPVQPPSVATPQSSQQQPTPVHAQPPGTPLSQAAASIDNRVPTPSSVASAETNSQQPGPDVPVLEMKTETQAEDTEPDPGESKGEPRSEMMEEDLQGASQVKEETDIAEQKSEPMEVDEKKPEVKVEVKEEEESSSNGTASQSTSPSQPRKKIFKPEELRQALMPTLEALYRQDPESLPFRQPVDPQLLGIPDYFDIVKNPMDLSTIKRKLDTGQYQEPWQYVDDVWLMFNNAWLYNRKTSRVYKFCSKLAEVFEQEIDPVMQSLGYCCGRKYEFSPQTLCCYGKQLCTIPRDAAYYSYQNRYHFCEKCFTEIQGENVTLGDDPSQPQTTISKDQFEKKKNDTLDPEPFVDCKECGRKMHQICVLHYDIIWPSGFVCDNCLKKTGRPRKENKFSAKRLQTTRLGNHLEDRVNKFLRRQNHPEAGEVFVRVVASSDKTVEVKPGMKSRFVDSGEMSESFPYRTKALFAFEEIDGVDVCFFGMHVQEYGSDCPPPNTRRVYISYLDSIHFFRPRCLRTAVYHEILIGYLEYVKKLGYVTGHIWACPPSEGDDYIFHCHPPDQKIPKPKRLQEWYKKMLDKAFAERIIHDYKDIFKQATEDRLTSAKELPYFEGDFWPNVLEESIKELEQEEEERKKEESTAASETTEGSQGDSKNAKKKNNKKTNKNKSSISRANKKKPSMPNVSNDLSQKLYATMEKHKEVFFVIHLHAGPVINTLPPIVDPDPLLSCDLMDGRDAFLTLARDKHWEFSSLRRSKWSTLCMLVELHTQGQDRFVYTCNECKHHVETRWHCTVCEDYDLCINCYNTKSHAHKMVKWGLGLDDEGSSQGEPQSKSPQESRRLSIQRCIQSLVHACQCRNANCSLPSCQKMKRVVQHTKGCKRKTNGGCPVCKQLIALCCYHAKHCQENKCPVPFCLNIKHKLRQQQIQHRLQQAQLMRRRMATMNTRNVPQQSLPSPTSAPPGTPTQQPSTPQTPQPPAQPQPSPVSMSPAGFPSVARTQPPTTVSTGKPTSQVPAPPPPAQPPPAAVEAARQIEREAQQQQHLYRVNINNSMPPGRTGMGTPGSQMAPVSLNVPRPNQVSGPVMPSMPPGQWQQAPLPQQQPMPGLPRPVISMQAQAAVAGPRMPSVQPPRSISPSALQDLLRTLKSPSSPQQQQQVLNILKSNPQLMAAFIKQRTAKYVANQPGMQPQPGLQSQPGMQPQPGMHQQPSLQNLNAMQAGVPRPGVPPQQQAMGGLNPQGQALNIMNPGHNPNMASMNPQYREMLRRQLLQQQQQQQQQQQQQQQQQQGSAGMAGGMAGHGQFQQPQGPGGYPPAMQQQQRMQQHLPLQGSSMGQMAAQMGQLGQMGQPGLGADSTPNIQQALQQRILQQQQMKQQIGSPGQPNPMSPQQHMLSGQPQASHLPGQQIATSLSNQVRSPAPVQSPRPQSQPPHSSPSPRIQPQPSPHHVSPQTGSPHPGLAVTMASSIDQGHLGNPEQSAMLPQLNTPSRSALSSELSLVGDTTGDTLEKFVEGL

Assays:
[1] = biological target: His-p65 (full-length NF-κB p65 subunit fused to an N-terminal histidine tag) (UniProt Q04206); experiment: condition: only cells pre-incubated with SB202190 (3.5 µM) and PD98059 (20 µM); co-IP; as a1, but cells pre-incubated for 1 h with SB202190 (3.5 µM) and PD98059 (20 µM) before IL-1β (20 U/ml)
S276C His-p65 mutant = S276C His-p65 mutant (UniProt Q04206); experiment: co-IP; anti-His-Tag antibody and protein A agarose on lysate of transfected human lung fibroblasts treated with IL-1β (20 U/ml); co-immunoprecipitation buffer 200 mM NaCl, 20 mM Tris-HCl pH 7.5, 1% Triton X-100, 1 mM DTT; overnight at 4°C; immunoblot with anti-p65 and anti-CBP
[2] = biological target: His-p65 (full-length NF-κB p65 subunit fused to an N-terminal histidine tag) (UniProt Q04206); experiment: condition: only cells pre-incubated with H89 (10 µM); co-IP; as a1, but cells pre-incubated for 1 h with the MSK1-PKA inhibitor H89 (10 µM) before IL-1β (20 U/ml)

Measured: binding

CBP (CREB-Binding Protein) (from UniProt Q92793 1-2442)
no binding: all assays above
